## Screening data, single-dose tests

By UniProt entry, the sequences of proteins in these tests, tags left out.
UniProt P9WPC5, whole entry: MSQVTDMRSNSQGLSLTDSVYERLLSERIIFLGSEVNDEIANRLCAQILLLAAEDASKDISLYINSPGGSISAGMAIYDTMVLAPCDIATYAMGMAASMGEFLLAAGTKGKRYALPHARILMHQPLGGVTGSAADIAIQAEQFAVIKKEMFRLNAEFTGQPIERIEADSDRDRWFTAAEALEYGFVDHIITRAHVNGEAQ
UniProt P9WPC3, whole entry partner: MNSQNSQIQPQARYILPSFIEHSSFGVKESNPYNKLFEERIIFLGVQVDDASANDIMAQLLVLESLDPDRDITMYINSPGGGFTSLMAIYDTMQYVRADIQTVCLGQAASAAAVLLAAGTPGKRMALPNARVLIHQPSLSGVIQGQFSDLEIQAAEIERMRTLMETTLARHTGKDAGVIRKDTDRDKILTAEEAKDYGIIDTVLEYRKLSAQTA
UniProt P9WFT3, whole entry: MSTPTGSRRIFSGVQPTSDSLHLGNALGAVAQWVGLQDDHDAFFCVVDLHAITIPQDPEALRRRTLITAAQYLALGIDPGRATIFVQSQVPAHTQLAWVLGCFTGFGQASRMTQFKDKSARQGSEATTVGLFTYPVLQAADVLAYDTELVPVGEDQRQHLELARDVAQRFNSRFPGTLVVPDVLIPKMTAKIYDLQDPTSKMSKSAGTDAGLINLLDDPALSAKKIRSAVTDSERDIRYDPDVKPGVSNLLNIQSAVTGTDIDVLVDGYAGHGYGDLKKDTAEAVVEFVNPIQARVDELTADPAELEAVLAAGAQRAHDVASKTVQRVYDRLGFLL
UniProt P9WNZ1, whole entry: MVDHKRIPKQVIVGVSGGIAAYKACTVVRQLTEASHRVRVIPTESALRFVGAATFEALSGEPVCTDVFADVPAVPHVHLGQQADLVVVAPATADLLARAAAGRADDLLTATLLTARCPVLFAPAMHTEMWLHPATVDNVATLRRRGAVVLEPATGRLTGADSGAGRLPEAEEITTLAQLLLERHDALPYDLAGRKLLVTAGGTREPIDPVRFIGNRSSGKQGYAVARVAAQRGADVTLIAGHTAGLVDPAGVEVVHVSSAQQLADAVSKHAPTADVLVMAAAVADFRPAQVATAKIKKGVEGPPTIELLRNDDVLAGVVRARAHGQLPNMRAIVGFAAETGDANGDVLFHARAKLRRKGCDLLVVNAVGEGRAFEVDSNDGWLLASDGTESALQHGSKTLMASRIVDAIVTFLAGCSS

From ChEMBL document CHEMBL3988442, “University of Dundee, Small-Polar-MMV Screening Library” (2021).

ClpP1P2: 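ClpP1P2, Mycobacterium tuberculosis (UniProt P9WPC5 and UniProt P9WPC3). Protease assay of ClpP1P2, read by the AMC dye that it sets free. Concentration: 50 µM. Direction is inferred from only a few compounds that gave an IC50; most scored high, so higher reads as stronger inhibition. Most other retested compounds had strongly negative values. Of about 69,000 compounds tested this way, about 10 (0.015%) reached 50% or more in at least one test.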
Toxoplasma: 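Assay of Toxoplasma gondii numbers, read through their beta-galactosidase reporter with a colour substrate. Tested at 10 µM. Higher reads as fewer parasites (inferred from which compounds were picked for retests). Of about 67,000 compounds tested this way, about 260 (0.38%) reached 50% or more in at least one test.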
MtTrpRS: 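Tryptophan-tRNA ligase, Mycobacterium tuberculosis (UniProt P9WFT3). Enzyme assay of tryptophanyl-tRNA synthetase; the read-out is not stated. Compounds at 10 µM. Higher most likely means stronger inhibition; the record gives no direction and few retests gave an IC50. About 65,000 compounds were tested under these conditions; 0.098% (about 64) showed 50% or more at least once.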
CoaBC: 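Coenzyme A biosynthesis protein CoaBC, Mycobacterium tuberculosis (UniProt P9WNZ1). Enzyme assay of CoaBC with a phosphate dye (Biomol Green) read at 650 nm. Tested at 30 µM. Direction is inferred from only a few compounds that gave an IC50; most scored high, so higher reads as stronger inhibition. Most strong results did not repeat in a second test. Of about 67,000 compounds tested this way, about 40 (0.06%) reached 50% or more in at least one test.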

Results are given as percent effect. How 0% and 100% were set is not recorded. Most values in the screen are low, and negative values occur. Compounds were drawn at random from those tested, without regard to their results.

structure: Cc1nc(O)cc(CN2C[C@H](NS(=O)(=O)N(C)C)[C@@H](C3CC3)C2)n1
ClpP1P2: -8.084%
Toxoplasma: 25.48%
MtTrpRS: 0.5757%
CoaBC: 1.595%

structure: CC1CN(CC2CCCCC2)CCN1c1ccc2nncn2n1 (stereo not drawn)
ClpP1P2: 34.63%
Toxoplasma: -0.3759%
MtTrpRS: -1.559%
CoaBC: 2.85%

structure: CC(CC(=O)NS(C)(=O)=O)C1CCCCC1 (stereo not drawn)
ClpP1P2: -8.53%
Toxoplasma: -1.73%
MtTrpRS: 0.5693%
CoaBC: 4.116%

structure: Cc1nc2ccc(S(=O)(=O)Nc3c(C)nn(CC(=O)O)c3C)cc2s1
ClpP1P2: 1.732%
Toxoplasma: -12.79%
MtTrpRS: -0.432%
CoaBC: 11.89%

structure: CCC(C(=O)NCc1csc(N2CCOCC2)n1)n1cccn1 (stereo not drawn)
ClpP1P2: 2.808%
Toxoplasma: 11.09%
MtTrpRS: -2.717%
CoaBC: 9.89%

structure: COCCN1CCc2cc(C(=O)N(C)C)c(NCC3CC3)nc2CC1.O=C(O)C(F)(F)F.O=C(O)C(F)(F)F
Toxoplasma: 2.605%

structure: OC(CNC1CCSCC1)c1cccc(OCc2ccccc2)c1 (stereo not drawn)
ClpP1P2: -11.78%
Toxoplasma: 40.53%
MtTrpRS: -1.748%
CoaBC: -3.855%

structure: Cc1ccc(CNC(=O)c2c[nH]nc2NC(=O)C2COCCO2)cc1 (stereo not drawn)
ClpP1P2: -3.791%
MtTrpRS: 0.6387%
CoaBC: 2.337%

structure: CCC(=O)N1CCC(c2nc(O)c3c(n2)CN(C2CCCCC2)CC3)C1 (stereo not drawn)
ClpP1P2: 5.887%
Toxoplasma: -4.67%
CoaBC: 0.2451%

structure: [H][C@@]12CCC(=O)N(CCc3ccccn3)[C@]1([H])CCN(c1ncc(F)cn1)C2
Toxoplasma: -7.734%

structure: O=C(NCC(F)(F)F)C1CSCN1S(=O)(=O)c1ccccc1F (stereo not drawn)
ClpP1P2: 22.67%
Toxoplasma: -0.3012%
MtTrpRS: 6.645%
CoaBC: 8.27%

structure: Cc1nc2c(c(NCc3cnc4c(c3)CCC4)n1)CNC2
ClpP1P2: -1.177%
Toxoplasma: -1.27%
MtTrpRS: 5.677%
CoaBC: 1.347%

structure: Cc1ccc(N2C(=O)N[C@@H]3CCN(C(=O)C4CC4)[C@@H]3C2=O)cc1
ClpP1P2: -7.282%
MtTrpRS: 2.485%
CoaBC: 12.42%

structure: CC(Cn1cccn1)NCc1csc2c1CCCC2 (stereo not drawn)
ClpP1P2: 4.252%
Toxoplasma: -27.22%
MtTrpRS: -5.812%
CoaBC: 13.45%

structure: COc1ccc(CC(=O)N2CCN(c3nccn3C)CC2)cc1
ClpP1P2: 12.52%
MtTrpRS: -3.732%
CoaBC: -3.294%

structure: O=C1CC[C@H]2[C@H](CCN2c2ncccn2)N1c1ccccc1
ClpP1P2: -4.411%
CoaBC: 3.96%

structure: O=C(c1cccnc1O)N1CCN(CCc2cccs2)CC1
ClpP1P2: -22.82%
Toxoplasma: -13.69%
MtTrpRS: -5.749%
CoaBC: 2.105%

structure: CC(C)c1nc(CN(C)C(=O)c2cn3ccsc3n2)cs1
ClpP1P2: 0.7567%
Toxoplasma: 10.41%
MtTrpRS: 5.874%
CoaBC: -3.802%

structure: Cc1nccn1Cc1nnc(C2CCCN(Cc3ccncc3)C2)n1C (stereo not drawn)
ClpP1P2: -13.47%
Toxoplasma: -21.05%
MtTrpRS: 1.112%
CoaBC: 2.043%

structure: O=C(O)C(F)(F)F.[H][C@]12CCN(C(=O)c3ccno3)[C@@]1([H])CC[C@H](COCCN1CCCC1)O2
Toxoplasma: -1.022%

structure: Cc1ccccc1CS(=O)(=O)c1nnc(C(C)NC(=O)OC(C)(C)C)o1 (stereo not drawn)
ClpP1P2: -6.75%
Toxoplasma: 6.08%
MtTrpRS: -1.455%
CoaBC: -4.116%

structure: O=C(NCC1CC1)c1nnc2ccc(Cl)cc2n1
ClpP1P2: 7.535%
Toxoplasma: 10.13%
MtTrpRS: 0.4078%
CoaBC: 0.4474%

structure: Cc1occc1C(=O)NCC(=O)N(C)CCCOc1ccc(F)cc1
ClpP1P2: -11%
Toxoplasma: 7.724%
MtTrpRS: 3.046%
CoaBC: 0.3659%

structure: CCOCC1CN(C(=O)N2CCCC2)Cc2cnn(C)c21 (stereo not drawn)
ClpP1P2: -5.219%
Toxoplasma: 15.23%
MtTrpRS: -3.457%
CoaBC: -2.096%

structure: O=c1cc(Cn2ccnc2)nc2n1CCCN(CC1CCOCC1)C2
ClpP1P2: 11.19%
Toxoplasma: 4.955%
MtTrpRS: 5.591%
CoaBC: 2.24%

structure: Cc1cccc(CC2CCCN(C(=O)Cc3csc(C)n3)C2)n1 (stereo not drawn)
ClpP1P2: 12.53%
Toxoplasma: -11.27%
MtTrpRS: 1.449%
CoaBC: 0.2433%

structure: CCCN1CCC(Cc2noc(-c3[nH]cnc3C)n2)CC1
ClpP1P2: -6.25%
Toxoplasma: -4.174%
MtTrpRS: 3.226%
CoaBC: 4.04%

structure: CC(=O)N1N=C(c2ccccc2)OC1C(=O)NCCN(C(C)C)C(C)C (stereo not drawn)
ClpP1P2: -2.661%
Toxoplasma: 4.383%
CoaBC: 4.126%

structure: CNC(=O)c1cc(OC)c(OC)cc1N(C)S(C)(=O)=O
ClpP1P2: -19.68%
Toxoplasma: -0.699%
MtTrpRS: -1.592%
CoaBC: 3.354%

For reference, 2 entries once more:

{"structure": "CC(Cn1cccn1)NCc1csc2c1CCCC2", "stereo": "stereo not drawn", "ClpP1P2": 4.252, "Toxoplasma": -27.22, "MtTrpRS": -5.812, "CoaBC": 13.45}
{"structure": "CCC(C(=O)NCc1csc(N2CCOCC2)n1)n1cccn1", "stereo": "stereo not drawn", "ClpP1P2": 2.808, "Toxoplasma": 11.09, "MtTrpRS": -2.717, "CoaBC": 9.89}